The source of these data is publication doi:10.1101/2022.10.11.511735.

Chains of the proteins cited; added tags and fusions are not shown.
UniProt Q12983: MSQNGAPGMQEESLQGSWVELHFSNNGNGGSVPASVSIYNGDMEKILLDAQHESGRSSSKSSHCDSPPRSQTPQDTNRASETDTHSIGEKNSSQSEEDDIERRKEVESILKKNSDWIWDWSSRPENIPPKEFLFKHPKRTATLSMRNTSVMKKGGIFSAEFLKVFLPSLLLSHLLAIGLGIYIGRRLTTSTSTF
UniProt O60238: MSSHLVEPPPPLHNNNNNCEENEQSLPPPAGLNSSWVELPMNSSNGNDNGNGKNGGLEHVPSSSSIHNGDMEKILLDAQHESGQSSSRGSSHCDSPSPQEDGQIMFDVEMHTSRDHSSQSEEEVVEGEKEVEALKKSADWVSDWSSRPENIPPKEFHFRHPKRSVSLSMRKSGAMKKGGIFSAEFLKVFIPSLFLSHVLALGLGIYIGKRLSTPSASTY

No constants are given. Whether binding was seen depends on the method and setting. Binding seen in cells or lysates may run through a third protein. Some results given as binding are weak or reduced against the parent protein; the word gives no strength. Tags and fused reporters may be left off the sequences shown.

Assay [1] deals with GFP-BNIP3 (UniProt Q12983). In words: co-IP.
Assay [2] has as its target GFP-NIX (UniProt O60238). The assay can be described thus: co-IP.

B1: FBXL4-3xFlag (protein, UniProt Q9UKA2 1-621)
chain: MSPVFPMLTVLTMFYYICLRRRARTATRGEMMNTHRAIESNSQTSPLNAEVVQYAKEVVDFSSHYGSENSMSYTMWNLAGVPNVFPSSGDFTQTAVFRTYGTWWDQCPSASLPFKRTPPNFQSQDYVELTFEQQVYPTAVHVLETYHPGAVIRILACSANPYSPNPPAEVRWEILWSERPTKVNASQARQFKPCIKQINFPTNLIRLEVNSSLLEYYTELDAVVLHGVKDKPVLSLKTSLIDMNDIEDDAYAEKDGCGMDSLNKKFSSAVLGEGPNNGYFDKLPYELIQLILNHLTLPDLCRLAQTCKLLSQHCCDPLQYIHLNLQPYWAKLDDTSLEFLQSRCTLVQWLNLSWTGNRGFISVAGFSRFLKVCGSELVRLELSCSHFLNETCLEVISEMCPNLQALNLSSCDKLPPQAFNHIAKLCSLKRLVLYRTKVEQTALLSILNFCSELQHLSLGSCVMIEDYDVIASMIGAKCKKLRTLDLWRCKNITENGIAELASGCPLLEELDLGWCPTLQSSTGCFTRLAHQLPNLQKLFLTANRSVCDTDIDELACNCTRLQQLDILGTRMVSPASLRKLLESCKDLSLLDVSFCSQIDNRAVLELNASFPKVFIKKSFTQ
With B1, the binding result in assay [1] and in assay [2] was “binds” in each case.
